These are yes or no findings as the source states them, for the method shown.

The target of assay [1] is AcrA^S (soluble AcrA lacking signal peptide and lipidation) (E. coli) (UniProt P0AE06). As to the kind of experiment: native MS; pH 6.0, 100 mM ammonium acetate; AcrA^L with 0.03% DDM (2x CMC); Synapt G2-Si or Q-Exactive UHMR; both purified.
Assay [2] has the same target. As to the kind of experiment: native MS; pH 7.4, 100 mM ammonium acetate; AcrA^L with 0.03% DDM; both purified.

On to “AcrA^S (soluble AcrA lacking signal peptide and lipidation) (from UniProt P0AE06 25-397) (domain or fragment)”, for which the binding entry in assay [1] and in assay [2] was “no binding” each time.

The values are drawn from publication PMC10354078, “Conformational restriction shapes the inhibition of a multidrug efflux adaptor protein” (Nature Communications, 2023).
